Data taken from publication PMC4106853.
No constants are given. Whether binding was seen depends on the method and setting. In cells and extracts the contact can be indirect. These calls come from enrichment with a bait or labelling near it, and not all partners need be listed.

Sequences of proteins named here, by UniProt entry; tags and fusion partners are left off.
UniProt P07356: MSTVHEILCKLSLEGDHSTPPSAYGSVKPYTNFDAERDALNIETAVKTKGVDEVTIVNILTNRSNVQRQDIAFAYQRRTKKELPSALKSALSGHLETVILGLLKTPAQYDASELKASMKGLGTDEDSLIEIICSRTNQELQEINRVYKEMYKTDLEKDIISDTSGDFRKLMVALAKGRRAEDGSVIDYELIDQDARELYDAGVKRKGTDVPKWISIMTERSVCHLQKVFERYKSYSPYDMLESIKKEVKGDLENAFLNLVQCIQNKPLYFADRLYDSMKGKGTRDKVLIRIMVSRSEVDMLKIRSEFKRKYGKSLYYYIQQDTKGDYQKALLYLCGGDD

T1: HTF-Rab27a^WT (rat) (UniProt P23640)
T1 sequence: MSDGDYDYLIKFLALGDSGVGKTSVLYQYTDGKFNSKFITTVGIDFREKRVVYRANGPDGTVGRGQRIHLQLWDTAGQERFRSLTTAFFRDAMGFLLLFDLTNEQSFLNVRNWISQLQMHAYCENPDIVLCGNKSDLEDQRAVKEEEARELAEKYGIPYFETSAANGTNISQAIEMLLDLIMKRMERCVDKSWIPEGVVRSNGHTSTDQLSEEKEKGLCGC

B1: Pmel-17 (protein, UniProt Q60696 24-626)
chain: EGSRNQDWLGVPRQLVTKTWNRQLYPEWTEVQGSNCWRGGQVSLRVINDGPTLVGANASFSIALHFPGSQKVLPDGQVIWANNTIINGSQVWGGQPVYPQEPDDACVFPDGGPCPSGPKPPKRSFVYVWKTWGKYWQVLGGPVSRLSIATGHAKLGTHTMEVTVYHRRGSQSYVPLAHASSTFTITDQVPFSVSVSQLQALDGETKHFLRNHPLIFALQLHDPSGYLAEADLSYTWDFGDGTGTLISRALDVTHTYLESGSVTAQVVLQAAIPLVSCGSSPVPGTTDGYMPTAEAPGTTSRQGTTTKVVGTTPGQMPTTQPSGTTVVQMPTTEVTATTSEQMLTSAVIDTTLAEVSTTEGTGTTPTRPSGTTVAQATTTEGPDASPLLPTQSSTGSISPLLDDTDTIMLVKRQVPLDCVLYRYGSFSLALDIVQGIESAEILQAVPFSEGDAFELTVSCQGGLPKEACMDISSPGCQPPAQRLCQSVPPSPDCQLVLHQVLKGGSGTYCLNVSLADANSLAVASTQLVVPGQDGGLGQAPLLVGILLVLVAVVLASLIHRHRLKKQGSVSQMPHGSTHWLRLPPVFRARGLGENSPLLSGQQV
B2: Glycoprotein non-metastatic protein B (GPNMB) (protein, UniProt Q99P91 23-574)
chain: KRFRDVLGHEQYPDHMREHNQLRGWSSDENEWDEHLYPVWRRGDGRWKDSWEGGRVQAVLTSDSPALVGSNITFVVNLVFPRCQKEDANGNIVYEKNCRNDLGLTSDLHVYNWTAGADDGDWEDGTSRSQHLRFPDRRPFPRPHGWKKWSFVYVFHTLGQYFQKLGRCSARVSINTVNLTAGPQVMEVTVFRRYGRAYIPISKVKDVYVITDQIPVFVTMSQKNDRNLSDEIFLRDLPIVFDVLIHDPSHFLNDSAISYKWNFGDNTGLFVSNNHTLNHTYVLNGTFNLNLTVQTAVPGPCPPPSPSTPPPPSTPPSPPPSPLPTLSTPSPSLMPTGYKSMELSDISNENCRINRYGYFRATITIVEGILEVSIMQIADVPMPTPQPANSLMDFTVTCKGATPMEACTIISDPTCQIAQNRVCSPVAVDGLCLLSVRRAFNGSGTYCVNFTLGDDASLALTSTLISIPGKDPDSPLRAVNGVLISIGCLAVLVTMVTILLYKKHKAYKPIGNCPRNTVKGKGLSVLLSHAKAPFFRGDQEKDPLLQDKPRTL

The molecules below were run against T1, HTF-Rab27a^WT (rat) (assay: affinity purification with mass spectrometry; tandem affinity purification of HTF-Rab27a from 1% CHAPS S100 of stable melan-ash2 lines (anti-HA IP, TEV cleavage, anti-FLAG IP, FLAG peptide elution), Buffer A (50 mM Tris pH 7.5, 150 mM NaCl, 5 mM MgCl2, 1 mM DTT) with CHAPS, 4°C; nano-LC mass spectrometry; untransfected melan-ash2 as control).

Row | Molecule | binding
1 | Annexin A2 (Anxa2) (from UniProt P07356 1-339) | binds
2 | B1 | binds
3 | B2 | binds
